Among the data in publication PMC10177021 are binding values, retold here.

Sequences of proteins named here, by UniProt entry; tags and fusion partners are left off. A change or cut given only in a name is not applied to a line headed by its entry. Residues count along the entry.
UniProt P97772, residues 21-1199: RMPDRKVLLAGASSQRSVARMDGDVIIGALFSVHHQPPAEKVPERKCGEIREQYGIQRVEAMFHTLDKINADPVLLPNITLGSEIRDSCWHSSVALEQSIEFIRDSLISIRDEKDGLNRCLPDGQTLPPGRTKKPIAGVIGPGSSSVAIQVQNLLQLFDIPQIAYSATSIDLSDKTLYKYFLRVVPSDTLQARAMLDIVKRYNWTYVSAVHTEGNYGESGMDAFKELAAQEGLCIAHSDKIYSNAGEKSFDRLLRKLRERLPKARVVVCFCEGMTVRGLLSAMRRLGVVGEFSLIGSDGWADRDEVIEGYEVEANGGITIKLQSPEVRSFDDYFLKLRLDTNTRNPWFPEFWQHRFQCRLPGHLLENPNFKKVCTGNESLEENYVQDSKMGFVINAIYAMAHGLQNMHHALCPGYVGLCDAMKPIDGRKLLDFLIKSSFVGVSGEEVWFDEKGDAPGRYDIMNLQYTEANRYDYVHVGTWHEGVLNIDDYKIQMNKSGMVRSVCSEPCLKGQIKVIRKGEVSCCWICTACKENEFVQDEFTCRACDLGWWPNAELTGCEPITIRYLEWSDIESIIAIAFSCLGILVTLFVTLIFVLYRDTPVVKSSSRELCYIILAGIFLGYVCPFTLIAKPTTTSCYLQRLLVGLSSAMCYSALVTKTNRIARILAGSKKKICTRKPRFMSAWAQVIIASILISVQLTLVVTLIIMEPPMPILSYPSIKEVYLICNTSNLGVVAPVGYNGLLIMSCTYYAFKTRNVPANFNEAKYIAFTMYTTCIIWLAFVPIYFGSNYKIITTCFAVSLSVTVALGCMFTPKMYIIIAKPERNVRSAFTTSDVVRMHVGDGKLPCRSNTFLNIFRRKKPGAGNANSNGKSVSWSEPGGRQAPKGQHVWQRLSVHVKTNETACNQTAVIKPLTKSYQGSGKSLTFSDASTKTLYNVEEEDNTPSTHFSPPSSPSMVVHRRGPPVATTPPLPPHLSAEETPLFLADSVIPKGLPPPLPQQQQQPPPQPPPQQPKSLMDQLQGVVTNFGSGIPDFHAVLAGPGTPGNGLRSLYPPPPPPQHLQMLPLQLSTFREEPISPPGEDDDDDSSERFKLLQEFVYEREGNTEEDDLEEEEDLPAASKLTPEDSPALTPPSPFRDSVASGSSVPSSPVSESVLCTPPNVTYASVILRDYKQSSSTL
UniProt Q3UVX5, residues 19-1203: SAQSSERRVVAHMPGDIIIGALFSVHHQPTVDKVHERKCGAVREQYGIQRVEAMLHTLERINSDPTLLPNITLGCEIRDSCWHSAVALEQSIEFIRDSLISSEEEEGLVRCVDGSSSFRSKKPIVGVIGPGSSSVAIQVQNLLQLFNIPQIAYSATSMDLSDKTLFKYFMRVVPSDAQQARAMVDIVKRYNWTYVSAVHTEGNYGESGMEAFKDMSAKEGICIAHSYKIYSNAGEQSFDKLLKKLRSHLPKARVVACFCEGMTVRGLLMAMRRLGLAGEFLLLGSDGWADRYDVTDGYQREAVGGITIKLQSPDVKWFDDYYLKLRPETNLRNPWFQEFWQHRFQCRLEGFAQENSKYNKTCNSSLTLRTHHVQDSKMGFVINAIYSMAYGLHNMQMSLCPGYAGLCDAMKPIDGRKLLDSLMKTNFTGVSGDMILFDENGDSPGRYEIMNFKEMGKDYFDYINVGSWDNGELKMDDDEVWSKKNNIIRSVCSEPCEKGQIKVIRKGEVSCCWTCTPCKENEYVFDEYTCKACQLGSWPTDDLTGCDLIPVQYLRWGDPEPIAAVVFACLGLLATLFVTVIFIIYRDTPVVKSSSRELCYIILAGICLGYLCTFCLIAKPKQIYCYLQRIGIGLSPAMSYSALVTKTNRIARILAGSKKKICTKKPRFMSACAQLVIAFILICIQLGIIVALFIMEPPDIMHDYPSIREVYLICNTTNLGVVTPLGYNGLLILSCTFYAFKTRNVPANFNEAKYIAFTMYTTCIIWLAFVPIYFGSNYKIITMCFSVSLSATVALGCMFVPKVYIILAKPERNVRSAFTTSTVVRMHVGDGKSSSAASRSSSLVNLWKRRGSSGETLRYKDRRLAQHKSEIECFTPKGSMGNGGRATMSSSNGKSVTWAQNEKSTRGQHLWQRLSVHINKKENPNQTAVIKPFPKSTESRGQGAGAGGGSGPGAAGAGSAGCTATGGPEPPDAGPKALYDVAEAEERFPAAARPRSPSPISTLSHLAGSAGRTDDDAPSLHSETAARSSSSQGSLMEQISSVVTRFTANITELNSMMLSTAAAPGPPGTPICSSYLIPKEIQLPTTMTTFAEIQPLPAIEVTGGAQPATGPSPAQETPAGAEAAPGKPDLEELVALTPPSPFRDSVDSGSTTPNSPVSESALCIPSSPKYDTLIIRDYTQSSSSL
UniProt P97445: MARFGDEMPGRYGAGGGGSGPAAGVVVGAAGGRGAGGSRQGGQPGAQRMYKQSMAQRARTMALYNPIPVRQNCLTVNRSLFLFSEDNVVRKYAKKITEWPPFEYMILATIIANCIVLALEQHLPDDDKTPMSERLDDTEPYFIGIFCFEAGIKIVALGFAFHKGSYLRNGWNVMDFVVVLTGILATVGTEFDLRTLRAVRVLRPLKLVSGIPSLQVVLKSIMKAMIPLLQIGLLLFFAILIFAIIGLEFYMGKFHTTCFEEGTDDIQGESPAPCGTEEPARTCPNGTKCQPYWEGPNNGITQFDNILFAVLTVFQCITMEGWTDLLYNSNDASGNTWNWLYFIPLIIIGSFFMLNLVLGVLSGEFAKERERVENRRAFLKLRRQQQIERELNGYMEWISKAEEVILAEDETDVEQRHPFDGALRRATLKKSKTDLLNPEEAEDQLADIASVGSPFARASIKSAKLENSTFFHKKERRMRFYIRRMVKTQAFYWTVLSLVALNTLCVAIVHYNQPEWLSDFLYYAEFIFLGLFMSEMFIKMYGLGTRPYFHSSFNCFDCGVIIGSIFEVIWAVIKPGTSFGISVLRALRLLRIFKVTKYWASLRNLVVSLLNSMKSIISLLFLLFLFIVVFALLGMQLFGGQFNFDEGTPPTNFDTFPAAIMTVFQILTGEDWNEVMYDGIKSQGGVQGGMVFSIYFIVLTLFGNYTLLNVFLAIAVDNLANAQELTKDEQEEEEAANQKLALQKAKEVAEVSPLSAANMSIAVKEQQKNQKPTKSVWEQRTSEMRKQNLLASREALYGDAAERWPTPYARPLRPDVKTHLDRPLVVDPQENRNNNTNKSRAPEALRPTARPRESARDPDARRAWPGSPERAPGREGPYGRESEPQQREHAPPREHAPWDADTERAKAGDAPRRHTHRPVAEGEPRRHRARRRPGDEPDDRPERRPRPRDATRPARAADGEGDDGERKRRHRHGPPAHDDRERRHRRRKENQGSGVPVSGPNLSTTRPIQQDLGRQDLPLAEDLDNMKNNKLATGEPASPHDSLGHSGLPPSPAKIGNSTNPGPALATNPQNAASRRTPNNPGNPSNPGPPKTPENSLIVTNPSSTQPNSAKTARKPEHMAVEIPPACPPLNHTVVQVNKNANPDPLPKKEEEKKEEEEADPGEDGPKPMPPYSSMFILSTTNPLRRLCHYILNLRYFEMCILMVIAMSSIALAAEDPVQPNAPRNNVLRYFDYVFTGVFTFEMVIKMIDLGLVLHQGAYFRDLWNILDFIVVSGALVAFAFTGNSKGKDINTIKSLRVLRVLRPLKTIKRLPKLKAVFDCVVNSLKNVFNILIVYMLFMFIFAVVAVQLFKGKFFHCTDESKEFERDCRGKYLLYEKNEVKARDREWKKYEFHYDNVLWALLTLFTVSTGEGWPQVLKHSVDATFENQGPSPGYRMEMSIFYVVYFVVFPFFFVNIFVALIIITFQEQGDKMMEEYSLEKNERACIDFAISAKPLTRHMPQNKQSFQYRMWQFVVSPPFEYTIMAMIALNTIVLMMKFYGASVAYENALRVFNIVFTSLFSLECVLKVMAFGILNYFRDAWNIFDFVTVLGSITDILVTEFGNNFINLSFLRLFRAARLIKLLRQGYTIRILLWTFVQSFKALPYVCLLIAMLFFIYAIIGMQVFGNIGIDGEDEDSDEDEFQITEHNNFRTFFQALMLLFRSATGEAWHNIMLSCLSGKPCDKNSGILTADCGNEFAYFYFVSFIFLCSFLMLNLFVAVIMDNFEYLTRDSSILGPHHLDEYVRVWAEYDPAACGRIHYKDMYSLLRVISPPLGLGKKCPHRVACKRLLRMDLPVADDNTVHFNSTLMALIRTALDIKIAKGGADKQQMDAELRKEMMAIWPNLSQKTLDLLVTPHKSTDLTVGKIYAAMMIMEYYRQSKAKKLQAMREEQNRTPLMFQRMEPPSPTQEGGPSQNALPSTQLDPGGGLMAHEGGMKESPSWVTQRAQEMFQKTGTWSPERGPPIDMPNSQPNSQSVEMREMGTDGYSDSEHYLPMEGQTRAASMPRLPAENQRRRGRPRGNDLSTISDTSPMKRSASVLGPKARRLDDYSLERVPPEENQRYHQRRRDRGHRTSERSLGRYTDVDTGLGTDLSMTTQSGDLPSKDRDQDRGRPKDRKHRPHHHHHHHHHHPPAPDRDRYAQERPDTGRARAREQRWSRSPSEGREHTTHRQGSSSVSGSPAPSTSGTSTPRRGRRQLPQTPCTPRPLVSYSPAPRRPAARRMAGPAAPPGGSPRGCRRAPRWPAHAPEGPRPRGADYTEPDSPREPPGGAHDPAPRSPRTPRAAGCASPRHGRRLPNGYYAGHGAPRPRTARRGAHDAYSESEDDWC
UniProt P46097: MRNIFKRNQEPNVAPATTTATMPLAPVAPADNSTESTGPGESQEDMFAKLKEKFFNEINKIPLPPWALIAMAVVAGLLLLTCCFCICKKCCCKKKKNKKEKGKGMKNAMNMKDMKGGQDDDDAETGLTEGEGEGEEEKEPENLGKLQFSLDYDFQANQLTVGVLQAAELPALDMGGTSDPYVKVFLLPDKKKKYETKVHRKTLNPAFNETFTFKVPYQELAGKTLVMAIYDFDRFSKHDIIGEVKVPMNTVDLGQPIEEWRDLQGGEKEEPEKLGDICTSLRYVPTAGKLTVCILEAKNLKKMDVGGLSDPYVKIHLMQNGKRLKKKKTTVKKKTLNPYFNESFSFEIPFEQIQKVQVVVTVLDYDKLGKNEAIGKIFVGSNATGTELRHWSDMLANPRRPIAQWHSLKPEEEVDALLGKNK
UniProt P28652: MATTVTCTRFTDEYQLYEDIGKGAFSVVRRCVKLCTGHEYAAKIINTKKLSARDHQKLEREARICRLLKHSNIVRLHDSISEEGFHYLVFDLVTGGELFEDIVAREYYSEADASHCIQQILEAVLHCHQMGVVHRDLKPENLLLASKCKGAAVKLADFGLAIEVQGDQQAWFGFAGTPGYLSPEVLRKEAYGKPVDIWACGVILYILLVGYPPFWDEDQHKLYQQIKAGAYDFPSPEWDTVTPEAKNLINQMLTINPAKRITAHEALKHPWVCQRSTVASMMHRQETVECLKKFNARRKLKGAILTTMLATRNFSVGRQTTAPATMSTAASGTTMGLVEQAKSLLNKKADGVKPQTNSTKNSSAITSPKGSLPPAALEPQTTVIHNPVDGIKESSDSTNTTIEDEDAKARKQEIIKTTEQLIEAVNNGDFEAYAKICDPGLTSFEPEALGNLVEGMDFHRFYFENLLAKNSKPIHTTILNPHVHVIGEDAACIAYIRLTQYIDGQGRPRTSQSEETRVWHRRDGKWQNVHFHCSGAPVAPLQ

B1: excitatory amino acid transporter 4 (protein, UniProt O35544 1-561)
chain: MSSHGNSLFLRESGAGGGCLQGLQDSLQQRALRTRLRLQTMTREHVRRFLRRNAFILLTVSAVIIGVSLAFALRPYQLSYRQIKYFSFPGELLMRMLQMLVLPLIVSSLVTGMASLDNKATGRMGMRAAVYYMVTTVIAVFIGILMVTIIHPGKGSKEGLHREGRIETVPTADAFMDLVRNMFPPNLVEACFKQFKTQYSTRVVTRTIVRTDNGSELGASMSPTSSVENETSILENVTRALGTLQEVISFEETVPVPGSANGINALGLVVFSVAFGLVIGGMKHKGRVLRDFFDSLNEAIMRLVGIIIWYAPVGILFLIAGKILEMEDMAVLGGQLGMYTLTVIVGLFLHAGGVLPLIYFLVTHRNPFPFIGGMLQALITAMGTSSSSATLPITFRCLEEGLGVDRRITRFVLPVGATVNMDGTALYEALAAIFIAQVNNYELNLGQITTISITATAASVGAAGIPQAGLVTMVIVLTSVGLPTEDITLIIAVDWFLDRLRTMTNVLGDSIGAAVIEHLSQRELELQEAELTLPSLGKPYKSLMAQEKGASRGRGGNESVM
B2: ADP/ATP translocase 1 (protein, UniProt P48962 1-298)
chain: MGDQALSFLKDFLAGGIAAAVSKTAVAPIERVKLLLQVQHASKQISAEKQYKGIIDCVVRIPKEQGFLSFWRGNLANVIRYFPTQALNFAFKDKYKQIFLGGVDRHKQFWRYFAGNLASGGAAGATSLCFVYPLDFARTRLAADVGKGSSQREFNGLGDCLTKIFKSDGLKGLYQGFSVSVQGIIIYRAAYFGVYDTAKGMLPDPKNVHIIVSWMIAQSVTAVAGLVSYPFDTVRRRMMMQSGRKGADIMYTGTLDCWRKIAKDEGANAFFKGAWSNVLRGMGGAFVLVLYDEIKKYV
B3: 14-3-3 protein γ (protein, UniProt P61982 1-247)
chain: MVDREQLVQKARLAEQAERYDDMAAAMKNVTELNEPLSNEERNLLSVAYKNVVGARRSSWRVISSIEQKTSADGNEKKIEMVRAYREKIEKELEAVCQDVLSLLDNYLIKNCSETQYESKVFYLKMKGDYYRYLAEVATGEKRATVVESSEKAYSEAHEISKEHMQPTHPIRLGLALNYSVFYYEIQNAPEQACHLAKTAFDDAIAELDTLNEDSYKDSTLIMQLLRDNLTLWTSDQQDDDGGEGNN
B4: phosphate carrier protein, mitochondrial (protein, UniProt Q8VEM8 46-357)
chain: AVEEYSCEFGSMKYYALCGFGGVLSCGLTHTAVVPLDLVKCRMQVDPQKYKGIFNGFSITLKEDGVRGLAKGWAPTLIGYSMQGLCKFGFYEVFKALYSNILGEENTYLWRTSLYLASSASAEFFADIALAPMEAAKVRIQTQPGYANTLREAVPKMYKEEGLNAFYKGVAPLWMRQIPYTMMKFACFERTVEALYKFVVPKPRSECTKAEQLVVTFVAGYIAGVFCAIVSHPADSVVSVLNKEKGSTASQVLQRLGFRGVWKGLFARIIMIGTLTALQWFIYDSVKVYFRLPRPPPPEMPESLKKKLGLTE
B5: glutamate receptor ionotropic, δ-2 (receptor, UniProt Q61625 24-1007)
chain: DSIIHIGAIFDESAKKDDEVFRTAVGDLNQNEEILQTEKITFSVTFVDGNNPFQAVQEACELMNQGILALVSSIGCTSAGSLQSLADAMHIPHLFIQRSTAGTPRSGCGLTRSNRNDDYTLSVRPPVYLNEVILRVVTEYAWQKFIIFYDSEYDIRGIQEFLDKVSQQGMDVALQKVENNINKMITTLFDTMRIEELNRYRDTLRRAILVMNPATAKSFISEVVETNLVAFDCHWIIINEEINDVDVQELVRRSIGRLTIIRQTFPVPQNISQRCFRGNHRISSSLCDPKDPFAQNMEISNLYIYDTVLLLANAFHKKLEDRKWHSMASLSCIRKNSKPWQGGRSMLETIKKGGVNGLTGDLEFGENGGNPNVHFEILGTNYGEELGRGVRKLGCWNPVTGLNGSLTDKKLENNMRGVVLRVVTVLEEPFVMVSENVLGKPKKYQGFSIDVLDALSNYLGFNYEIYVAPDHKYGSPQEDGTWNGLVGELVFKRADIGISALTITPDRENVVDFTTRYMDYSVGVLLRRAEKTVDMFACLAPFDLSLWACIAGTVLLVGLLVYLLNWLNPPRLQMGSMTSTTLYNSMWFVYGSFVQQGGEVPYTTLATRMMMGAWWLFALIVISSYTANLAAFLTITRIESSIQSLQDLSKQTDIPYGTVLDSAVYQHVRMKGLNPFERDSMYSQMWRMINRSNGSENNVLESQAGIQKVKYGNYAFVWDAAVLEYVAINDPDCSFYTVGNTVADRGYGIALQHGSPYRDVFSQRILELQQSGDMDILKHKWWPKNGQCDLYSSVDAKQKGGALDIKSLAGVFCILAAGIVLSCLIAVLETWWSRRKGSRVPSKEDDKEIDLEHLHRRVNSLCTDDDSPHKQFSTSSIDLTPLDIDTLPTRQALEQISDFRNTHITTTTFIPEQIQTLSRTLSAKAASGFAFGSVPEHRTGPFRHRAPNGGFFRSPIKTMSSIPYQPTPTLGLNLGNDPDRGTSI
B6: 2′,3′-cyclic-nucleotide 3′-phosphodiesterase (enzyme, UniProt P16330-2 1-400)
chain: MSSSGAKEKPELQFPFLQDEDTVATLHECKTLFILRGLPGSGKSTLARLILEKYHDGTKMVSADAYKIIPGSRADFSEAYKRLDEDLAGYCRRDIRVLVLDDTNHERERLDQLFEMADQYQYQVVLVEPKTAWRLDCAQLKEKNQWQLSADDLKKLKPGLEKDFLPLYFGWFLTKKSSETLRKAGQVFLEELGNHKAFKKELRHFISGDEPKEKLELVSYFGKRPPGVLHCTTKFCDYGKAAGAEEYAQQEVVKRSYGKAFKLSISALFVTPKTAGAQVVLTDQELQLWPSDLDKPSASEGLPPGSRAHVTLGCAADVQPVQTGLDLLDILQQVKGGSQGEAVGELPRGKLYSLGKGRWMLSLTKKMEVKAIFTGYYGKGKPVPIHGSRKGGAMQICTII
B7: ATP synthase subunit γ, mitochondrial (protein, UniProt Q91VR2 26-298)
chain: ATLKDITRRLKSIKNIQKITKSMKMVAAAKYARAERELKPARVYGTGSLALYEKADIKAPEDKKKHLIIGVSSDRGLCGAIHSSVAKQMKNEVAALTAAGKEVMIVGVGEKIKGILYRTHSDQFLVSFKDVGRKPPTFGDASVIALELLNSGYEFDEGSIIFNQFKSVISYKTEEKPIFSLNTIATAETMSIYDDIDADVLQNYQEYNLANLIYYSLKESTTSEQSARMTAMDNASKNASDMIDKLTLTFNRTRQAVITKELIEIISGAAALD
B8: homer protein homolog 3 (protein, UniProt Q99JP6-2 1-359)
chain: MSTAREQPIFSTRAHVFQIDPTTKRNWIPAGKHALTVSYFYDATRNVYRIISIGGAKAIINSTVTPNMTFTKTSQKFGQWADSRANTVYGLGFASEQQLTQFAEKFQEVKEAARLAREKSQDGGEFTSTGLALASHQVPPSPLVSTNGPGEEKLFRSQSADTPGPTERERLKKMLSEGSVGEVQWEAEFFALQDSNQRLAGALREANAAATQWRQQLEVQRAEAELLRQRVAELEAQVAVEPVRAGEKEATSQSVEQLEARVQTKDQEIQTLKNQSTGTREAPDTAEREETQQQVQDLETRNAELEQQLRSMECNLEEARAERERARAEVGRAAQLLDVRLFELSELREGLARLAEAAP

These are yes or no findings as the source states them, for the method shown. Binding seen in cells or lysates may run through a third protein. These calls come from enrichment with a bait or labelling near it, and not all partners need be listed.

The experiment has as its target metabotropic glutamate receptor 1, mGlu1α variant (mouse (endogenous in cerebellum)) (UniProt P97772). The experiment in a line: affinity purification with mass spectrometry; mGlu1α immunoprecipitated with Af811-1 (three replicates) or Af660-1 (three replicates) and Dynabeads Protein-A from detergent lysates (0.5% deoxycholate, 1% NP-40, 0.1% SDS) of the mouse cerebellar P2 fraction; LC-MS/MS of eluates; proteins also found from Grm1-KO lysates removed.
“metabotropic glutamate receptor 5 (from UniProt Q3UVX5 19-1203)”: the binding result was “binds”.
For “inositol 1,4,5-trisphosphate receptor type 1 (from UniProt P11881-1 1-2749)” the value was “binds”.
The result for “protein kinase C γ type (from UniProt P63318 1-697) (enzyme)” reads “binds”.
The result for “CaV2.1 calcium channels (from UniProt P97445 1-2368)” reads “binds”; that for “sodium/potassium-transporting ATPase subunit α-2 (from UniProt Q6PIE5 1-1020)”, “binds”.
In the case of “synaptotagmin-2 (from UniProt P46097 1-422)”, the binding entry is recorded as “binds”.
For “calcium/calmodulin-dependent protein kinase type II subunit β (from UniProt P28652 1-542) (enzyme)” the value was “binds”; for B1, “binds”; for B2, “binds”.
For B3 the value was “binds”; for B4, “binds”; for B5, “binds”.
The result for B6 reads “binds”.
Turning to B7, the binding result was “binds”.
For B8 the value was “binds”.
